Test system: HEK293T cells
Test: Free NAD+ in non-permeabilized HEK293T cells interpolated from sensor calibration
Format: cell-based

For `NC(=O)c1ccc[n+]([C@@H]2O[C@H](COP(=O)([O-])OP(=O)(O)OC[C@H]3O[C@@H](n4cnc5c(N)ncnc54)[C@H](O)[C@@H]3O)[C@@H](O)[C@H]2O)c1` [NAD+, nicotinamide adenine dinucleotide], the “free NAD+ value, cytoplasm” value (cytoplasmic sensor 488/405 nm relative to cpVenus) was 105.8 µM and the “free nuclear NAD+ level” value (nuclear sensor) was 108.8 µM.

— patent US10392649B2, “Biosensors that detect NAD+” (Oregon Health & Science University, priority 2014, dated 2019)
